Screening data, single-dose tests

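Whole-cell growth test on Mycobacterium tuberculosis, read after 3 days in glucose-containing 7H9 medium; the read-out is not stated. Tested at 500 µM. Direction is inferred from retests: higher values go with more growth inhibition. Of about 18,000 compounds tested this way, about 1,400 (7.9%) reached 50% or more in at least one test.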

Each number is a percent effect as filed.
The record does not define 0% and 100%; most values in the screen are far below 50% and negative numbers occur (in some assays of this library far below -100).
This is an unselected part of the compounds tested.

| structure | percent effect |
|---|---|
| `O=C1N(CC2CCC2)CCCC1(O)CN1CCOCC1` (stereo unspecified) | -16.91 |
| `CCc1ccnc(C(=O)NC(C)(CO)CO)c1` | 7.293 |
| `CCCNC(=O)C1CCN(C(=O)N(CC)CC)CC1` | 12.41 |
| `COc1ccc(CNC(=O)CN(C)CC(C)(C)O)cc1` | 31.99 |
| `c1ccc(OCCCNCc2cccnc2)nc1` | 10 |
| `CN(C)C(=O)c1csc2c1CCCC2` | 46.53 |
| `CO[C@H]1CN(C(=O)CCc2cccnc2)CC[C@H]1N` | 10.91 |
| `Cc1nnc2n1N=C(c1cccs1)CS2` | -7.203 |
| `COCc1noc(C2CCN(CC(F)(F)F)CC2)n1` | 12.79 |
| `CCOc1ncccc1C(=O)N[C@@H]1CCOC[C@H]1OC` | 2.911 |
| `CC1CCCCN1CCCNC(=O)c1cc[nH]n1` (stereo unspecified) | -20.75 |
| `CNC(=O)C1CCCN(C(=O)c2cncc(Br)c2)C1` (stereo unspecified) | 18.59 |
| `CCc1ccc(CN2CCCCC2C(=O)NC)nc1` (stereo unspecified) | 11.4 |
| `CC(=O)c1ccc(OCCN(C)C)cc1` | 3.088 |
| `CCCC(C(=O)OCC)S(N)(=O)=O` (stereo unspecified) | -7.115 |
| `O=C(c1cc(Br)c[nH]1)N1CCCCC1` | 13.41 |
| `OCCn1ncc2c1CN(CCc1ccccn1)C2` | -23.42 |
| `Cc1noc(CCNC(=O)NCCc2ccccn2)n1` | 2.093 |
| `CCn1cnnc1CNC(=O)NC(C)Cn1cccn1` (stereo unspecified) | 10.13 |
| `NCc1ccc(C(=O)NCC(N)=O)cc1` | 13.48 |
| `CC(C)c1nnc(C2COCCN2)o1` (stereo unspecified) | -3.022 |
| `Cc1nn(C)cc1C(C)NC(=O)c1c(I)cnn1C` (stereo unspecified) | 10.72 |
| `CC1CN(C2CCN(c3ccncc3Cl)CC2)CCO1` (stereo unspecified) | 18.59 |
| `CCNCc1cc(OC)c(OCC(N)=O)c(OC)c1` | 8.324 |
| `CN1CCCN(C(=O)NCCCn2cccn2)CC1` | 2.66 |
| `Cc1ccc(CNC(=O)NCCO)cc1` | 16.42 |
| `COC1(CNC(=O)c2cc(Cl)ccn2)CCC1` | 47.68 |
| `CC(C)NC(=O)CN1CC(Oc2ccccc2)C1` | 23.62 |
| `CCOc1ccccc1CN(CC(O)CO)C1CC1` (stereo unspecified) | 11.65 |
| `COc1ccc(Cl)cc1NCC(N)=O` | 2.973 |
| `CNC1CCCOC1` (stereo unspecified) | -8.135 |
| `CN1CC(CO)OC1=O` (stereo unspecified) | 2.422 |
| `CC(C)N(CC(C)(C)O)C(=O)NCC1CCCO1` (stereo unspecified) | -1.045 |
| `CNC(=O)C1CCN(C(=O)Nc2ccc(C)c(Cl)c2)C1` (stereo unspecified) | 24.38 |
| `Cc1cccc(C(=O)NCc2cccc(O)c2)n1` | 63.22 |
| `CC(N)CC(=O)Nc1cccc(N2CCCC2)c1` (stereo unspecified) | 44.86 |
| `CC(C)(CNC(=O)c1c[nH]nn1)c1cccc(F)c1` | 42.03 |
| `CN(CC(=O)Nc1ncccc1O)C1CCS(=O)(=O)C1` (stereo unspecified) | 4.379 |
| `CN(C)C(=O)CN(C)C(=O)COc1ccc(Cl)cc1Cl` | 2.22 |
| `COC(=O)CCN1CCN(c2cccc(OC)c2)CC1` | 0.8454 |
| `Cn1ccnc1C1CCCN1` (stereo unspecified) | -3.847 |
| `COC(=O)C(C)SCCc1cccnc1` (stereo unspecified) | 12.37 |
| `O=S(=O)(NCCNCc1sccc1Cl)c1cccnc1` | -0.6465 |
| `NC(=O)C1(CNCc2cccc(Br)c2)CCOCC1` | 22.87 |
| `O=S(=O)(NCC1(c2ccccc2)CC1)N1CCOCC1` | 47.85 |
| `O=C(NCCN1CCCC1)c1ccccc1F` | 15.96 |
| `Cc1ccc(C(=O)N2CCCC2c2cccs2)c(=O)[nH]1` (stereo unspecified) | 19.7 |
| `Cn1cnnc1C1CCN(CC2CCCOC2)CC1` (stereo unspecified) | 8.858 |
| `Cc1ccc(CNC(=O)c2nccs2)cn1` | 45.49 |
| `O=S(=O)(Cc1ccc(Cl)cc1)c1ccccn1` | 36.49 |
| `CC(C)(C)c1ccc(N)nc1` | 1.843 |
| `CCCc1nc(C(=O)NC2CCCCNC2=O)cs1` (stereo unspecified) | 27.63 |
| `Cc1ccc(S(=O)(=O)NC2CNC2)cc1` | 12.56 |
| `COc1ccc(CCS(=O)(=O)c2nccn2C)cc1` | 33.7 |
| `CSCC(=O)N1CCC(CCC(=O)N2CCCC2)CC1` | 11.23 |
| `CCc1cc(C#N)ccc1NC(=O)N[C@@H]1CCCNC1` | 38.53 |
| `Cc1occc1C(=O)NCc1ccnc(N(C)C)c1` | 39.71 |
| `Nc1cncc(CC2CC(=O)N(c3ccccc3)C2)c1` (stereo unspecified) | 18.9 |
| `O=C(NCCN1CC=CC1)c1c(O)cc(F)cc1F` | 23.32 |
| `NC1CCN(c2cccc(Cl)c2)C1` (stereo unspecified) | -9.639 |
| `CNC(=O)c1ccc(S(=O)(=O)NCCCOC)cc1` | 12.46 |
| `OCCC1(NCc2ccc(F)cc2)CCOCC1` | 2.563 |
| `CC(C)CN1CCN(C(=O)c2ccncc2F)CC1` | -3.915 |
| `NC1CCN(CC(F)(F)F)C1` (stereo unspecified) | 35.31 |
| `CNC1CCN(c2cccnn2)CC1` | -1.66 |
| `Cc1cnc(C(=O)Nc2ccccc2)cn1` | 1.327 |
| `CCN(CC(C)C#N)C(=O)c1sccc1C` (stereo unspecified) | 15.7 |
| `OCCNCCNCc1ccc(-c2cccc(Cl)c2)o1` | 83.53 |
| `O=C1CCN(C(=O)CCc2ccc(Br)cc2F)CCN1` | 37.71 |
| `CC[C@@]1(O)CCN(C(=O)c2cccnc2OC)C[C@H]1O` | 6.575 |
| `CCNc1nnc(SCc2ccnn2C)s1` | 25.13 |
| `N#CCCN1CCC(NS(=O)(=O)c2ccccc2)CC1` | -4.67 |
| `O=c1[nH]c(-c2ccccn2)nc2c1CCCN2` | 35.01 |

Source: ChEMBL document CHEMBL3988442, “University of Dundee, Small-Polar-MMV Screening Library” (2021).